# Among all 330,000 compounds or so, about 7,700 (2.3%) were called active. The shares of active, inactive and inconclusive entries below differ from those in the screen. Calls follow the shape of the dose curve; as a rule, active = well fitted inhibition curve with a large enough effect; inconclusive = small, poorly fitted or top-dose-only effect, or effect the other way; inactive = flat fitted curve, though single readings scatter. Potencies of inconclusive entries are doubtful fits and often do not repeat.
# Assay: qHTS screen for small molecules that inhibit ELG1-dependent DNA repair in human embryonic kidney (HEK293T) cells expressing luciferase-tagged ELG1; also: nearly all actives have a fitted effect of over 55% in size
# Details: HEK293T ELG1-luciferase reporter, luminescence, 16 h, DNA damage induced by 5-fluorouridine; series mostly up to 46.1 µM
# Method in brief: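 DMSO vehicle served as the neutral condition. Each well held 2,000 cells given 5-fluorouridine plus compound; after 16 hr at 37 °C/5% CO2, ONE-Glo was added and luciferase measured 30 min later.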
# Potency is read from the fitted curve at half-maximal effect.
row,Structure (SMILES),Potency
1,CC1=C(C(=O)OCc2ccc3c(c2)OCO3)C(c2cccc([N+](=O)[O-])c2)NC(=O)N1 (stereo unspecified),active: 7.3 µM
2,COc1ccc(C(=O)Nc2cc(C)on2)c(OC)c1,"inconclusive: 18.3 µM [activator, partial curve]"
3,Cc1nnsc1-c1nnc(SCC(=O)c2ccc(F)cc2)n1C1CC1,"inconclusive: 16.4 µM [activator, partial curve, poor fit]"
4,CCCCn1c(N)c(N(Cc2ccccc2OC)C(=O)c2cc(CC)c(C)s2)c(=O)[nH]c1=O,inactive
5,COc1ccc(/C=N/N(C)c2cc(=O)n(C)c(=O)[nH]2)cc1OC,"inconclusive: 23.1 µM [activator, single point]"
6,COc1ccc(C(=O)C(OC(=O)c2ccccc2Cl)c2ccccc2)cc1 (stereo unspecified),"inconclusive: 14.6 µM [activator, partial curve]"
7,CC(=O)NS(=O)(=O)c1ccc(NC(=O)CC(C)c2ccccc2)cc1 (stereo unspecified),inactive
8,CCn1c(Cc2ccccc2)nnc1SCC(=O)N1CCCCC1,inactive
9,CCCCN(CC)S(=O)(=O)c1ccc(C(=O)Nc2nnc(-c3cccs3)o2)cc1,"inconclusive: 1.46 µM [inhibitor, full curve]"
10,CCSc1nnc(NC(=O)C2CCCCC2)s1,"inconclusive: 18.4 µM [activator, partial curve]"
11,COc1ccc(-c2cc(=O)oc3cc(OCC(=O)NCC4CCC(C(=O)O)CC4)ccc23)cc1 (stereo unspecified),inactive
12,CC(=O)c1ccc(NC(=S)NCCc2cccc(Cl)c2)cc1,"inconclusive: 13 µM [activator, partial curve]"
13,O=C(NCCc1ccccc1)C(=O)Nc1ccc2c(c1)OCCO2,"inconclusive: 16.4 µM [activator, partial curve]"
14,CN(C)CCCN(C(=O)c1ccc(S(=O)(=O)N2CCc3ccccc32)cc1)c1nc2ccc(Cl)cc2s1,"inconclusive: 29.1 µM [activator, single point]"
15,O=C(NCCN1C(=O)S/C(=C\c2ccc(Cl)cc2)C1=O)C1=COCCO1,inactive
16,COc1cccc(/C=C2\C=C(c3ccc(C)cc3)OC2=O)c1OC(C)=O,"inconclusive: 13 µM [activator, partial curve, poor fit]"
17,CCn1nnc2c(=O)oc3ccccc3c21,inactive
18,COc1ccc(/C=C2\CCCc3c2nc2ccccc2c3C(=O)OCC(=O)c2c(N)n(C)c(=O)n(C)c2=O)cc1,active: 3.26 µM
19,CCOC(=O)C1CCCN(Cc2c(C(=O)N3CCCCC3)nc3c(C)cccn23)C1 (stereo unspecified),inactive
20,CCOC(=O)N1CCN(Cc2cn[nH]c2-c2ccc(-c3ccccc3)cc2)CC1,"inconclusive: 18.3 µM [inhibitor, single point]"
21,CSc1nc(C)cc(SCC(=O)Nc2ccccc2)n1,"inconclusive: 29.1 µM [inhibitor, single point]"
22,CCCn1c2ccccc2c2nnc(SCCN3CCOCC3)nc21,"inconclusive: 23.1 µM [inhibitor, single point]"
23,O=C(NCC1CCCO1)C1CC(=O)N(c2ccccc2)C1 (stereo unspecified),inactive
24,CCNC(=S)N1CCn2cccc2C1c1ccc(F)cc1 (stereo unspecified),"inconclusive: 25.9 µM [inhibitor, single point]"

# Grouped by structure, those above containing fluorine (2)
row,Structure (SMILES),Potency
3,Cc1nnsc1-c1nnc(SCC(=O)c2ccc(F)cc2)n1C1CC1,"inconclusive: 16.4 µM [activator, partial curve, poor fit]"
24,CCNC(=S)N1CCn2cccc2C1c1ccc(F)cc1 (stereo unspecified),"inconclusive: 25.9 µM [inhibitor, single point]"

# Remaining list, next part

row,Structure (SMILES),Potency
1,Cc1ccccc1C(CC(=O)c1cccs1)C(C#N)C#N (stereo unspecified),"inconclusive: 20.6 µM [inhibitor, single point]"
2,N=c1c(-c2nc3ccccc3[nH]2)cc(C(=O)c2ccco2)nn1-c1ccccc1,active: 16.4 µM
3,CCc1nc(Nc2cccc(OC)c2)c2oc3ccccc3c2n1,"inconclusive: 18.3 µM [inhibitor, single point]"
4,O=C(O)c1cc(/C=C/c2ccc(N3CCOCC3)cc2)nc2ccccc12,"inconclusive: 2.59 µM [activator, full curve]"
5,CC1CCN(CC(=O)Nc2ccc(C(=O)N3CCCCC3)cc2)CC1,inactive
6,Cc1ccc(SCCC(=O)N/N=C/c2ccccc2O)cc1,inactive
7,CC(C)(C)c1ccc(C(=O)N2CCC(=O)N(C(COCc3ccccc3)Cc3ccccc3)CC2)cc1 (stereo unspecified),"inconclusive: 20.6 µM [inhibitor, single point]"
8,CCOC(=O)C1CCCN(C(=S)NC(=O)c2cc(Br)ccc2Cl)C1 (stereo unspecified),inactive
9,C=CCn1c(N)c(C(=O)Nc2ccccc2)c2nc3ccccc3nc21,"inconclusive: 18.4 µM [inhibitor, single point]"
10,COCCNC(=O)/C(C#N)=C/C=C/c1ccccc1,inactive
11,C=CC[C@@H](CC(=O)N[C@@H](CO)Cc1ccccc1)C(=O)N[C@H](COC(=O)[C@@H](CC=C)CC(=O)OC(C)(C)C)Cc1c[nH]c2ccccc12,active: 20.6 µM
12,COc1cccc(-c2c(C(=O)N/N=C/c3sccc3C)nnn2-c2nonc2N)c1,"inconclusive: 20.6 µM [inhibitor, single point]"
13,COc1cccc(C(=O)/C=C/c2ccc(OCC#N)c(OC)c2)c1,"inconclusive: 29.1 µM [inhibitor, single point]"
14,Cc1ccc(-c2nnc(-c3ccc4c(c3)OCO4)o2)cc1,"inconclusive: 3.66 µM [activator, full curve]"
15,COc1ccc(N(C(=O)Cn2nnc(-c3ccccc3F)n2)C(C(=O)NCC2CCCO2)c2ccc(Cl)cc2)cc1 (stereo unspecified),"inconclusive: 10.3 µM [activator, partial curve, poor fit]"
16,CC(C)C(=O)Nc1ccc2c(c1)nc1n2CCSC1,"inconclusive: 23.1 µM [activator, partial curve]"
17,Cc1nc(NC(=O)CCCC(=O)Nc2nc(C)c(C)s2)sc1C,"inconclusive: 16.4 µM [inhibitor, single point]"
18,Cc1ccc(C2=NNC(c3cccc(F)c3)S2)cc1 (stereo unspecified),"inconclusive: 2.91 µM [activator, partial curve]"
19,COc1ccc2nc(N3CCN(C(=O)c4ccc5ncsc5c4)CC3)sc2c1,inactive
20,O=C(CN1CCCCC1)Nc1ccc(S(=O)(=O)NC2CCCCC2)cc1,inactive
21,COc1ccc2nc3cc(Cl)ccc3c(Nc3cc(C(C)C)c(O)cc3C)c2c1,"inconclusive: 29.1 µM [inhibitor, single point]"
22,COCCN1CCn2c(nc3cc(NC(=O)NC4CCCCC4)ccc32)C1,"inconclusive: 29.1 µM [activator, partial curve, poor fit]"
23,C#CCOCCOCCOCCNc1nc(N2CCOCC2)nc(N2CCN(C(=O)CCCCCCCCCCNC(=O)[C@H]([C@@H](C)CC)n3cc(CCCCN=C(N)N)nn3)CC2)n1,"inconclusive: 2.51 µM [inhibitor, partial curve, poor fit]"
24,CC(C)Cc1nnc(NC(=O)CCC(=O)Nc2ccc(Cl)cc2)s1,"inconclusive: 0.58 µM [activator, partial curve]"

# Filtered by structure: the compounds so far containing a cyano group (3)
row,Structure (SMILES),Potency
1,Cc1ccccc1C(CC(=O)c1cccs1)C(C#N)C#N (stereo unspecified),"inconclusive: 20.6 µM [inhibitor, single point]"
10,COCCNC(=O)/C(C#N)=C/C=C/c1ccccc1,inactive
13,COc1cccc(C(=O)/C=C/c2ccc(OCC#N)c(OC)c2)c1,"inconclusive: 29.1 µM [inhibitor, single point]"

# Later entries.

row,Structure (SMILES),Potency
1,CCOC(=O)c1c(C)n(-c2ccc(C)cc2)c2ccc(OCC(O)CN3CCN(C)CC3)cc12 (stereo unspecified),"inconclusive: 23.1 µM [activator, single point]"
2,COc1ccc(Cl)cc1NC(=O)CN(C)CC(=O)NCc1ccc(F)cc1,"inconclusive: 14.6 µM [inhibitor, single point]"
3,Cc1ccc(C(=O)CSc2nnc(-c3ccccc3)n2-c2ccccc2)o1,"inconclusive: 20.6 µM [inhibitor, single point]"
4,COc1cccc(NC(=S)N(Cc2ccco2)C(C)c2ccco2)c1 (stereo unspecified),inactive
5,COC(=O)C(Cc1ccccc1)NC(=O)c1ccc(C)cc1 (stereo unspecified),inactive
6,O=[N+]([O-])c1cc(C(F)(F)F)ccc1Sc1nccn1Cc1ccccc1,inactive
7,Cn1c(CN2CCN(S(C)(=O)=O)CC2)nc2cc([N+](=O)[O-])ccc21,inactive
8,Cc1ccc(Cn2cccc2/C=C2/C(=N)N3C=CSC3=NC2=O)cc1,inactive
9,CC(NS(=O)(=O)c1ccccc1)C(=O)Nc1nccs1 (stereo unspecified),"inconclusive: 13 µM [activator, partial curve, poor fit]"
10,CCN1C(=O)N/C(=C/c2ccc(Sc3ccc(C)cc3)o2)C1=O,"inconclusive: 35.5 µM [inhibitor, single point]"
11,COc1cccc(NC(=O)CSc2nc3ccccc3c3nc4ccccc4n23)c1,"inconclusive: 5.8 µM [inhibitor, partial curve]"
12,CCCOc1c(Br)cc(C(N)=O)cc1OCC,"inconclusive: 32.6 µM [inhibitor, single point]"
13,Cc1ccccc1Cn1nnc(-c2ccc3c(c2)OCO3)n1,"inconclusive: 20.6 µM [activator, partial curve]"
14,CN(Cc1ccc(Br)s1)C(=O)CNC(=O)c1ccc2c(c1)OCO2,inactive
15,COc1ccccc1NS(=O)(=O)c1cc(NC(=O)Nc2ccc(Cl)cc2Cl)ccc1N1CCCCC1,inactive
16,O=C(CCCO)N/N=C/c1cc(Br)ccc1O,"inconclusive: 25.9 µM [inhibitor, single point]"
17,CCOCCCNC(=O)c1ccc2c(c1)ncn2C1CCCC1,"inconclusive: 29.1 µM [activator, single point]"
18,O=C1N/C(=N/O)S/C1=C/c1cccc([N+](=O)[O-])c1,"inconclusive: 23.1 µM [activator, single point]"
19,CSC(C1CCCC1)n1nnc2ccccc21 (stereo unspecified),inactive
20,CCn1c(=O)c(=O)[nH]c2cc(C(=O)N(C)Cc3ccc(OC)c(F)c3)ccc21,inactive
21,CCN(c1ccccc1)S(=O)(=O)c1ccc(N2CCN(c3ccc(OC)cc3)CC2)nc1,"inconclusive: 25.9 µM [inhibitor, single point]"
22,O=C(N/N=C/c1ccc([N+](=O)[O-])o1)c1cn2ccc3ccccc3c2n1,inactive
23,O=C(CS(=O)(=O)c1ccc(F)cc1)Nc1nccs1,"inconclusive: 2.31 µM [inhibitor, partial curve]"
